Some entries share one result that the patent states for a list of compounds.
Assays:
Assay type in all cases: in vivo
Sclerotinia sclerotiorum = assay: Test Examples 2 and 3: preventive effect on Sclerotinia rot disease of cucumber, foliar spray; conditions: cucumber (Sagami Hanjiro), flowable formulation diluted to 500 ppm, foliar spray before inoculation, 18° C. for 4 days under high humidity
Description: (§1) The area of lesions on the test plants at testing was visually observed, and the control effect was evaluated by comparing the area of lesions on test plants treated with the invented compound with the area of lesions on untreated plants.
Test for Showing Preventive Effect on Sclerotinia Rot Disease of Cucumber (Sclerotinia sclerotiorum)
Sand soil was packed in a plastic pot, and seeds of cucumber (variety: Sagami Hanjiro) were sowed therein and grown for 12 days in a greenhouse. […] After spraying, the plant was air-dried and PDA medium containing hyphae of Sclerotinia sclerotiorum was placed on the surface of leaves of the cucumber. After the inoculation, the plant was left at 18° C. for 4 days under high humidity, area of lesions was examined. As a result, the lesion area on the plant treated with the invented compounds (1), (3)-(27) and (28) was less than 10% of the lesion area on the untreated plant.
Sand soil was packed in a plastic pot, and seeds of cucumber (variety: Sagami Hanjiro) were sowed therein and grown for 12 days in a greenhouse. The invented compound (2) was formulated into flowable formulation in accordance with Formulation Example 6, and it was diluted with water to a given concentration (200 ppm) and was sprayed onto the foliage of the cucumber so that a sufficient amount of the compound would be applied to the surface of leaves of the cucumber. […]

Magnaporthe grisea = conditions: rice (Nihonbare), flowable formulation diluted to 500 ppm, foliar spray before inoculation, examined 5 days after inoculation
Botrytis cinerea = assay: Test Example 1: preventive effect on Botrytis disease of cucumber, foliar spray; conditions: cucumber (Sagami Hanjiro), flowable formulation diluted to 13 ppm, foliar spray before inoculation, 12° C. for 5 days under high humidity
Description: as §1
Test for Showing Preventive Effect on Botrytis Disease of Cucumber (Botrytis cinerea)
Sand soil was packed in a plastic pot, and seeds of cucumber (variety: Sagami Hanjiro) were sowed therein and grown for 12 days in a greenhouse. Each of the invented compounds (2), (3), (7), (11), (12), (15), (16), (18), (19), (21), (23), (24) and (27) and the comparative compound (A) was formulated into flowable formulation in accordance with Formulation Example 6, and it was diluted with water to a given concentration (13 ppm) and was sprayed onto the foliage of the cucumber so that a sufficient amount of the compound would be applied to the surface of leaves of the cucumber. After spraying, the plant was air-dried and PDA medium containing spores of Botrytis cinerea was placed on the surface of leaves of the cucumber. After the inoculation, the plant was left at 12° C. for 5 days under high humidity, and then the area of lesions was examined. As a result, the lesion area on the plant treated with the invented compounds (2), (3), (7), (11), (12), (15), (16), (18), (19), (21), (23), (24) and (27) was less than 30% of the lesion area on the untreated plant. The lesion area on the plant treated with the comparative compound (A) was 98% of the untreated plant.

Structure (SMILES)	lesion area on the treated plant as % of the lesion area on the untreated plant (Sclerotinia sclerotiorum)	lesion area on the treated plant as % of the lesion area on the untreated plant (Magnaporthe grisea)	lesion area on the treated plant as % of the lesion area on the untreated plant (Botrytis cinerea)
C=CCOc1cccc(CNC(=O)c2ccc3ncccc3c2)c1F [(1)]	less than 10%	less than 10%	
C=CCCOc1cccc(CNC(=O)c2ccc3ncccc3c2)c1F [(2)]			less than 30%
CC=CCOc1cccc(CNC(=O)c2ccc3ncccc3c2)c1F [(7)]		less than 10%	less than 30%
C=CCOc1cccc(CNC(=O)c2ccc3ncccc3c2)c1 [(9)]		less than 10%	
C=CCCCOc1cccc(CNC(=O)c2ccc3ncccc3c2)c1 [(11)]			less than 30%
C=CCCCCOc1cccc(CNC(=O)c2ccc3ncccc3c2)c1 [(12)]			less than 30%
CC=CCOc1cccc(CNC(=O)c2ccc3ncccc3c2)c1 [(15)]		less than 10%	less than 30%
CCC=CCOc1cccc(CNC(=O)c2ccc3ncccc3c2)c1 [(16)]			less than 30%
C#CCOc1cccc(CNC(=O)c2ccc3ncccc3c2)c1F [(17)]		less than 10%	
C#CCCCOc1cccc(CNC(=O)c2ccc3ncccc3c2)c1F [(18)]		less than 10%	less than 30%
C#CCCCCOc1cccc(CNC(=O)c2ccc3ncccc3c2)c1F [(19)]			less than 30%
CCC#CCOc1cccc(CNC(=O)c2ccc3ncccc3c2)c1F [(21)]			less than 30%
C#CCCCOc1cccc(CNC(=O)c2ccc3ncccc3c2)c1 [(23)]			less than 30%
C#CCCCCOc1cccc(CNC(=O)c2ccc3ncccc3c2)c1 [(24)]			less than 30%
C#CCCOc1cccc(CNC(=O)c2ccc3ncccc3c2)c1F [(27)]		less than 10%	less than 30%
C#CCCOc1cccc(CNC(=O)c2ccc3ncccc3c2)c1 [(28)]	less than 10%	less than 10%	
